This note sets out measurements from patent US8063093B2, “Potassium channel blockers and uses thereof” (priority 2005, dated 2011).

By UniProt entry, the sequences of proteins in these tests, tags left out.
UniProt P16390, whole entry: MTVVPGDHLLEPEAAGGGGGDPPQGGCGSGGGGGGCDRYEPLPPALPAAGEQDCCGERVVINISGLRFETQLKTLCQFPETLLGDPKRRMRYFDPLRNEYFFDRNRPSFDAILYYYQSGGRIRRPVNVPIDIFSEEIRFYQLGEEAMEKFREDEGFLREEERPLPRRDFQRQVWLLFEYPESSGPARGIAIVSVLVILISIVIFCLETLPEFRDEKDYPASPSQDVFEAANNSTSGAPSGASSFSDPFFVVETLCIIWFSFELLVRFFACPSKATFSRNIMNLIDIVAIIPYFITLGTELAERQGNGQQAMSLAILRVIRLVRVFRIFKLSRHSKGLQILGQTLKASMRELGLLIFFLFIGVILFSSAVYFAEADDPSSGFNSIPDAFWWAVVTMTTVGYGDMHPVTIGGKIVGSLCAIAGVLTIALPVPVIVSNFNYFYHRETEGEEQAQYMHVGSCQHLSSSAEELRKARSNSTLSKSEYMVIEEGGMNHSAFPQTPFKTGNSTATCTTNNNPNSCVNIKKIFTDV

In the test the target is Kv1.3 (L929 cells stably expressing mKv1.3 or activated human T cells) (Mus musculus, UniProt P16390). Briefly: Kv1.3 current blockade, whole-cell patch-clamp. The conditions noted are these: read-out: EC50 (nM) blockade; Table 8, compounds of formula I; bounds given in uM. For orientation: The patch-clamp technique gives a direct electrical read-out from membranes.

The structures given here were assigned with low confidence; some may be wrong.

One may read the EC50 as the concentration that produces a half-maximal response. As to `COc1c(C(C)=O)c(O)c(OCCOc2ccccn2)c2occc12`, the EC50 was over 10000 nM.
